{"source": "PubChem BioAssay AID504467", "about": "(National Center for Advancing Translational Sciences (NCATS), 2011)", "note": "Screen size: about 330,000 compounds; about 7,700 (2.3%) were called active. The shares of active, inactive and inconclusive entries below differ from those in the screen. Calls follow the shape of the dose curve; as a rule, active = well fitted inhibition curve with a large enough effect; inconclusive = small, poorly fitted or top-dose-only effect, or effect the other way; inactive = flat fitted curve, though single readings scatter. Where the call is inconclusive, the potency comes from a doubtful curve fit. Potency is read from the fitted curve at half-maximal effect."}
{"test": "qHTS screen for small molecules that inhibit ELG1-dependent DNA repair in human embryonic kidney (HEK293T) cells expressing luciferase-tagged ELG1; also: nearly all actives have a fitted effect of over 55% in size", "conditions": "HEK293T ELG1-luciferase reporter, luminescence, 16 h, DNA damage induced by 5-fluorouridine; series mostly up to 46.1 µM", "summary_of_the_method": "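DMSO vehicle served as the neutral condition. Each well held 2,000 cells given 5-fluorouridine plus compound; after 16 hr at 37 °C/5% CO2, ONE-Glo was added and luciferase measured 30 min later.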"}
{"molecule": "CC1(C)Cc2c(sc(N)c2C#N)C(C)(C)N1", "Potency": "inactive"}
{"molecule": "CC(=O)N1CCN(c2ccc(NCc3ccc(-c4cccc(Cl)c4)o3)cc2)CC1", "Potency": "inactive"}
{"molecule": "Cc1cc2c(=O)n(Cc3ccco3)c(SCC(=O)N3CCCc4ccccc43)nc2s1", "Potency": "inconclusive: 14.6 µM [inhibitor, partial curve]"}
{"molecule": "Cn1nnnc1Sc1ncnc2scc(-c3cccc(Br)c3)c12", "Potency": "active: 13 µM"}
{"molecule": "O=C(CCCn1c(=O)oc2ccccc21)N1CCc2ccccc2C1", "Potency": "inconclusive: 29.1 µM [activator, single point]"}
{"molecule": "COc1ccc(NC(=O)CSc2nnc3ccc(-c4ccccn4)nn23)cc1OC", "Potency": "inactive"}
{"molecule": "CC1CCN(S(=O)(=O)c2ccc3c(c2)oc(=O)n3C)CC1", "Potency": "inconclusive: 29.1 µM [activator, single point]"}
{"molecule": "Fc1ccc(NCc2nnc(SCc3nnc(-c4ccccc4)o3)n2CC2CCCO2)cc1", "note": "(stereo unspecified)", "Potency": "inactive"}
{"molecule": "CCOC(=O)c1cc([N+](=O)[O-])sc1N", "Potency": "inconclusive: 18.3 µM [activator, partial curve, poor fit]"}
{"molecule": "Cc1cccc(-n2nnc(C(=O)N3CCc4ccccc4C3)c2N)c1", "Potency": "inconclusive: 4.11 µM [activator, partial curve, poor fit]"}
{"molecule": "CCN1CNC(=S)N(c2ccccc2C)C1", "Potency": "inactive"}
{"molecule": "Cc1ccc(CCN=c2c([N+](=O)[O-])nn(-c3ccccc3)n2O)cc1", "Potency": "inactive"}
{"molecule": "CCOc1ccc(NC(=S)/C(=C(\\[O-])c2ccc(C)c([N+](=O)[O-])c2)[n+]2ccccc2)cc1", "Potency": "inactive"}
{"molecule": "O=C(c1c(Cl)cccc1Cl)N1CCN(c2cccc3[nH]ccc23)CC1", "Potency": "active: 18.3 µM"}
{"molecule": "CCNC(=S)N(CCc1c(C)[nH]c2ccc(C)cc12)Cc1cc(OC)c(OC)c(OC)c1", "Potency": "inconclusive: 18.4 µM [inhibitor, single point]"}
{"molecule": "COC(=O)C1CCN(CC(=O)NC(=O)Nc2ccccc2F)CC1", "Potency": "inconclusive: 29.1 µM [activator, single point]"}
{"molecule": "O=C1C(Cl)=C(NS(=O)(=O)c2ccc([N+](=O)[O-])cc2)C(=O)c2ccccc21", "Potency": "active: 18.3 µM"}
{"molecule": "CCN1CCN(C(c2ccc(C(F)(F)F)cc2)c2ccc3cccnc3c2O)CC1", "note": "(stereo unspecified)", "Potency": "inactive"}
{"molecule": "O=c1c2c([nH]c3ccc(Br)cc13)CCCC2", "Potency": "inactive"}
{"molecule": "CCc1cc2c(=O)[nH]c(-c3ccccn3)nc2s1", "Potency": "inconclusive: 2.91 µM [activator, partial curve]"}
{"molecule": "Cc1ccc(C)c(NC(=O)Cn2nnc(-c3ccc(N4CCOCC4)cc3)n2)c1", "Potency": "inconclusive: 29.1 µM [activator, single point]"}
{"molecule": "COc1ccc(C(=O)NC2CCN(C(=O)NC3CCCCC3)CC2)cc1", "Potency": "inactive"}
{"molecule": "CCN(CC)S(=O)(=O)c1cccc(NC(=O)c2ccc(Br)cc2)c1", "Potency": "inconclusive: 13 µM [inhibitor, partial curve]"}
{"molecule": "CC1=NN(c2ccccc2)C(=O)/C1=C\\c1cn(C)c2ccccc12", "Potency": "inconclusive: 23.1 µM [inhibitor, single point]"}
{"molecule": "COc1ccc2[nH]c(C)c(CCN(Cc3cccs3)C(=S)Nc3ccc(F)cc3)c2c1", "Potency": "inactive"}
{"molecule": "O=C(C[C@H]1C/C=C\\CC[C@H](Cc2ccc(F)cc2)C(=O)OC[C@H]2CCCN2C1=O)NCCO", "Potency": "inactive"}
{"molecule": "CCCCCCOC1(c2ccccc2)OC(=O)c2ccccc21", "note": "(stereo unspecified)", "Potency": "inactive"}
{"molecule": "O=C(c1ccccc1)N(Cc1ccccc1)Cc1ccccc1", "Potency": "inconclusive: 5.62 µM [inhibitor, single point]"}
{"molecule": "CC(C)(C)CC(=O)Nc1cccc(-c2cn3cccnc3n2)c1", "Potency": "inconclusive: 20.6 µM [activator, partial curve]"}
{"molecule": "Cc1ccc(NC(=O)COC(=O)c2ccn(C)n2)cc1", "Potency": "inconclusive: 29.1 µM [activator, single point]"}
{"molecule": "Cn1c(N)c(C(=O)CCl)c(=O)n(Cc2ccccc2)c1=O", "Potency": "active: 20.6 µM"}
{"molecule": "O=C(c1ccccc1)c1cccc(NC(=O)c2ccco2)c1", "Potency": "inconclusive: 9.2 µM [activator, partial curve]"}
{"molecule": "CCC1(c2ccccc2)NC(=O)N(Cc2cccc([N+](=O)[O-])c2)C1=O", "note": "(stereo unspecified)", "Potency": "inconclusive: 29.1 µM [inhibitor, single point]"}
{"molecule": "O=C(COc1ccc(Cl)cc1Cl)NC(=O)N1CCCCC1", "Potency": "inconclusive: 8.2 µM [activator, partial curve]"}
{"molecule": "Cc1c([N+](=O)[O-])c(C(=O)Sc2ccc(Br)cc2)nn1C", "Potency": "inconclusive: 5.8 µM [inhibitor, partial curve]"}
{"molecule": "COC(=O)c1c(C)nn(-c2ccc(OC(F)(F)F)cc2)c1-c1snnc1C", "Potency": "inconclusive: 16.4 µM [inhibitor, single point]"}
{"molecule": "CC[C@@]1(C(=O)OC)N[C@H](CN(C)C(=O)Nc2ccc(F)cc2)[C@@H]2C(=O)N(C)C(=O)[C@@H]21", "Potency": "inconclusive: 18.3 µM [activator, single point]"}
{"molecule": "CCCn1c(SCC(=O)N2CCN(c3ccc(OC)cc3)CC2)nc2c1c(=O)n(C)c(=O)n2C", "Potency": "active: 20.6 µM"}
{"molecule": "Cc1nn(Cc2ccc(Cl)cc2Cl)c(C)c1NC(=O)CCl", "Potency": "active: 14.6 µM"}
{"molecule": "Cc1ccc(S(=O)(=O)N2CC(O)C2)cc1", "Potency": "inactive"}
{"molecule": "CC1CCCC(C)N1C(=O)COC(=O)c1cccnc1Cl", "note": "(stereo unspecified)", "Potency": "inconclusive: 25.9 µM [activator, single point]"}
{"molecule": "CCOc1ccc(Br)cc1S(=O)(=O)NCc1ccncc1", "Potency": "inactive"}
{"molecule": "CSCc1ccc(C(=O)OCc2nc3ccccc3s2)o1", "Potency": "inconclusive: 18.3 µM [activator, partial curve]"}
{"molecule": "CCc1ccc2nc3sc(C(=O)N4CCc5ccccc54)c(N)c3cc2c1", "Potency": "inconclusive: 20.6 µM [activator, single point]"}
{"molecule": "COc1ccc(C(=O)NC(=S)Nc2ccccc2N2CCOCC2)cc1Br", "Potency": "inconclusive: 23.1 µM [inhibitor, single point]"}
{"molecule": "CSc1ccc(Cn2nnc(C(=O)Nc3ccc(C)c(C)c3)c2N)cc1", "Potency": "inconclusive: 20.6 µM [activator, partial curve]"}
{"molecule": "O=C(Nc1ccccc1N1CCN(C(=O)c2ccccc2)CC1)c1cccc(Cl)c1", "Potency": "inconclusive: 29.1 µM [inhibitor, single point]"}
{"molecule": "O=C(Nc1ccc(F)cc1Cl)C1=COCCO1", "Potency": "inconclusive: 23.1 µM [activator, partial curve, poor fit]"}
{"molecule": "CNS(=O)(=O)c1ccc(NC(=S)Nc2ccc3c(c2)OCO3)cc1", "Potency": "inconclusive: 20.6 µM [activator, single point]"}
{"molecule": "CN(C)C(CNC(=O)c1ccc(C(F)(F)F)cc1)c1ccco1", "note": "(stereo unspecified)", "Potency": "inconclusive: 20.6 µM [activator, single point]"}
{"molecule": "Clc1ccc(-c2nc(C3CCCCC3)no2)cc1", "Potency": "inconclusive: 16.4 µM [activator, partial curve]"}
{"molecule": "O=C(Nc1nc2ccc(F)cc2s1)c1ccc(N2CCCC2=O)cc1", "Potency": "inconclusive: 0.82 µM [activator, partial curve]"}
{"molecule": "CC1=C(c2ccc(Cl)cc2)[N+](=O)C(C)(C)N1[O-]", "Potency": "inactive"}
{"molecule": "CCCN(C(=O)CSc1nnc(-c2ccoc2C)n1N)C1CCS(=O)(=O)C1", "note": "(stereo unspecified)", "Potency": "active: 0.651 µM"}
{"molecule": "CCN(CC)S(=O)(=O)c1ccc(C(=O)Nc2cc(C)cc(C)c2)cc1", "Potency": "inactive"}
{"molecule": "O=C(c1ccco1)N1CCN(C(=O)c2ccc(-c3ccc([N+](=O)[O-])cc3)o2)CC1", "Potency": "inconclusive: 7.3 µM [inhibitor, single point]"}
{"molecule": "CC1CCN(C(=O)c2cc(-c3ccccc3O)on2)CC1", "Potency": "inconclusive: 0.92 µM [activator, full curve, poor fit]"}
{"molecule": "COc1ccc(/C=C2\\SC(=O)N(CCNC(=O)C3CCN(S(=O)(=O)c4cccs4)CC3)C2=O)cc1", "Potency": "inconclusive: 10.3 µM [activator, partial curve]"}
{"molecule": "COc1cc(NC(=O)COc2cc(O)c3c(c2)OC(C)(C)CC3=O)cc(OC)c1", "Potency": "inconclusive: 29.1 µM [inhibitor, single point]"}
{"molecule": "Cc1occc1-c1nnc(SCC(=O)c2ccc(F)cc2)o1", "Potency": "inconclusive: 20.6 µM [activator, single point]"}
{"molecule": "COC(=O)c1ccc2c(=O)n(CC3CCCO3)c(SCC(=O)Nc3ccc(OC)cc3OC)nc2c1", "note": "(stereo unspecified)", "Potency": "inconclusive: 6.51 µM [inhibitor, single point]"}
{"molecule": "Cc1cc(C(=O)Nc2ccccc2N2CCCCC2)no1", "Potency": "inactive"}
{"molecule": "Cc1csc(NC(=O)c2ccc(Br)s2)n1", "Potency": "inconclusive: 23.1 µM [activator, partial curve]"}
{"molecule": "CC(=O)c1cccc(NC(=O)c2cc(Cl)sc2Cl)c1", "Potency": "inconclusive: 20.6 µM [activator, partial curve, poor fit]"}
{"molecule": "CCOc1ccc(NC(=O)CN(C)C(=O)c2cccnc2Sc2ccc(Cl)cc2)cc1OCC", "Potency": "inconclusive: 13 µM [inhibitor, partial curve, poor fit]"}
{"molecule": "Cc1ccc(S(=O)(=O)NCC(=O)Nc2ccc3c(c2)OCCO3)cc1", "Potency": "inconclusive: 29.1 µM [activator, partial curve, poor fit]"}
{"molecule": "COCCNC(=S)N(CCc1c(C)[nH]c2ccccc12)Cc1ccco1", "Potency": "inconclusive: 29.1 µM [inhibitor, single point]"}
{"molecule": "CN(C)CC(=O)N1c2ccccc2Sc2ccc(Cl)cc21", "Potency": "inactive"}
{"molecule": "CCn1nc(C)cc1C(=O)N1CCc2c([nH]c3ccccc23)C1c1cc(F)ccc1F", "note": "(stereo unspecified)", "Potency": "inconclusive: 10.3 µM [activator, partial curve]"}
{"molecule": "CCCSc1nnc(NC(=O)Nc2ccccc2OC)s1", "Potency": "inconclusive: 29.1 µM [activator, single point]"}
{"molecule": "COC(=O)c1ccc(COC(=O)CCNS(=O)(=O)c2ccc(C)c(C)c2)cc1", "Potency": "inactive"}
